Consider 37 targets from the supplement of paper PMC10060354, “Discovery of a small molecule ligand of FRS2 that inhibits invasion and tumor growth” (Cellular Oncology, 2022).

Sequences of proteins named here, by UniProt entry; tags and fusion partners are left off. A change or cut given only in a name is not applied to a line headed by its entry.
UniProt Q9UDW1: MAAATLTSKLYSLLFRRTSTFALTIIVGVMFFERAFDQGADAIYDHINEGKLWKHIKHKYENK
UniProt P05496: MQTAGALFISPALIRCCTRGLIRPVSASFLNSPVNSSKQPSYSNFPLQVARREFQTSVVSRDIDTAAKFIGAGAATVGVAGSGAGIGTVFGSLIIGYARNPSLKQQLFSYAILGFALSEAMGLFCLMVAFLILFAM
UniProt Q99623, whole entry: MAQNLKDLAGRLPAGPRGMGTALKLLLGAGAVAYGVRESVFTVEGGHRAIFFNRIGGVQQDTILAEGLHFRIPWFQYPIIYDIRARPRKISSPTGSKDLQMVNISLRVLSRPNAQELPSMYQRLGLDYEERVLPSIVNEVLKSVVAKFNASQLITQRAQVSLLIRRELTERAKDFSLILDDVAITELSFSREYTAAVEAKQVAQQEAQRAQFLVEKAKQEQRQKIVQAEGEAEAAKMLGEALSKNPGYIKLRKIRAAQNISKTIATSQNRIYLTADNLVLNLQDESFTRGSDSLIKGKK
UniProt Q27J81, whole entry: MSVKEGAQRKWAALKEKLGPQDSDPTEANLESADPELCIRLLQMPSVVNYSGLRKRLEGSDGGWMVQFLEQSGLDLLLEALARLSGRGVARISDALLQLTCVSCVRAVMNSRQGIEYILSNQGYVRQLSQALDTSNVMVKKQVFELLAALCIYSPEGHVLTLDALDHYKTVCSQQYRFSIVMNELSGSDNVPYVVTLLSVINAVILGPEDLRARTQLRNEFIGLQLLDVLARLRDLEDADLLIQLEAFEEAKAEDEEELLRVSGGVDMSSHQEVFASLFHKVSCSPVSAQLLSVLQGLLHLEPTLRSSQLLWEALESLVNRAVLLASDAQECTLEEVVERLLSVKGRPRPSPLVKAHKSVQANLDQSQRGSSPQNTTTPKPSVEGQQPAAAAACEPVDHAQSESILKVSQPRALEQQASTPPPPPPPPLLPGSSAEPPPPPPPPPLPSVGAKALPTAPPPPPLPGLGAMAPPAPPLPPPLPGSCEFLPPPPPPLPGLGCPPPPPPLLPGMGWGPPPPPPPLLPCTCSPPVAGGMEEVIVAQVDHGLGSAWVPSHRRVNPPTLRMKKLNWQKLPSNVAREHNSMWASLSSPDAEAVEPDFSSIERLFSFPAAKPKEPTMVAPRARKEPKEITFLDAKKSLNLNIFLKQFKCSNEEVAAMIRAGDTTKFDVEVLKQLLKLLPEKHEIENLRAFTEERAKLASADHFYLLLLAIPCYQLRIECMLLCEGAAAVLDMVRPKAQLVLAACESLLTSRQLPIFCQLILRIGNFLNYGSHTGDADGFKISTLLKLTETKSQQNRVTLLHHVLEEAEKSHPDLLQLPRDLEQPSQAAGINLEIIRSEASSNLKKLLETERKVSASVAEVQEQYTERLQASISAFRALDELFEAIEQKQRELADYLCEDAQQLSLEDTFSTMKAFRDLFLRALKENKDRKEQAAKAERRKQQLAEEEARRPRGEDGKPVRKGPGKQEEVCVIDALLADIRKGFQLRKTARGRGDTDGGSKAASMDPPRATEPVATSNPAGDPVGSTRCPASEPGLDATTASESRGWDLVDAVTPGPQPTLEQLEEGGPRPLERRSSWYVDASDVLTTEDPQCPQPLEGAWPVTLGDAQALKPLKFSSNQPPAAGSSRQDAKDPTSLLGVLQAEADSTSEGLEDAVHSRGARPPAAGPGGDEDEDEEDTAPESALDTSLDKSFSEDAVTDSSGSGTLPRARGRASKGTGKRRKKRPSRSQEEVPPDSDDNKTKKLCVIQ
UniProt Q8N556: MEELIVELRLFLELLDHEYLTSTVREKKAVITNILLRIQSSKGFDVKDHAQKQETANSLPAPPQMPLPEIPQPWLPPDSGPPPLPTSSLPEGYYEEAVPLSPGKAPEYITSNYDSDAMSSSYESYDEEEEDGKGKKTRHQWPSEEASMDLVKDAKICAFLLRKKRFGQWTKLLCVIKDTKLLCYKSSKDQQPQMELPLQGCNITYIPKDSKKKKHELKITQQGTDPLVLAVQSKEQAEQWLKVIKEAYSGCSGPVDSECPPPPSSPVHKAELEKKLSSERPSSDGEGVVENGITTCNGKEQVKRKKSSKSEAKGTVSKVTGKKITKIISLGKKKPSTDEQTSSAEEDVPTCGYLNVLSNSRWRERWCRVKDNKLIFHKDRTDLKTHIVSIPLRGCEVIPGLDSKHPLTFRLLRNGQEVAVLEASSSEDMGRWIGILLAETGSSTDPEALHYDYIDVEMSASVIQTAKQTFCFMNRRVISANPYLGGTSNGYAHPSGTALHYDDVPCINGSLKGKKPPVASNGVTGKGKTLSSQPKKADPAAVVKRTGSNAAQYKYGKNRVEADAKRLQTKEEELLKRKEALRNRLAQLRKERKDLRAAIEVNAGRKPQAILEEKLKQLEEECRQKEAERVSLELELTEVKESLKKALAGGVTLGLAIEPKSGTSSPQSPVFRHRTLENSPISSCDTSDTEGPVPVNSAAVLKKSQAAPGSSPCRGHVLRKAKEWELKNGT
UniProt Q15435: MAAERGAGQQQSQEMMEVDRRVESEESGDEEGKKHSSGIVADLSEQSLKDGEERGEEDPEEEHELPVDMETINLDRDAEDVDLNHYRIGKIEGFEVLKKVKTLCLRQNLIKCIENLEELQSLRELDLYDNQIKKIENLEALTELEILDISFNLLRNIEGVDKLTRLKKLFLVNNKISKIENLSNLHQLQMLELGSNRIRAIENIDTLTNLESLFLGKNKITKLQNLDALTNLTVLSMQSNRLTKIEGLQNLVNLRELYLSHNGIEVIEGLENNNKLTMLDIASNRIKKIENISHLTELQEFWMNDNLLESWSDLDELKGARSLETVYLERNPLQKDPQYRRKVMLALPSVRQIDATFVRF
UniProt Q9NX62: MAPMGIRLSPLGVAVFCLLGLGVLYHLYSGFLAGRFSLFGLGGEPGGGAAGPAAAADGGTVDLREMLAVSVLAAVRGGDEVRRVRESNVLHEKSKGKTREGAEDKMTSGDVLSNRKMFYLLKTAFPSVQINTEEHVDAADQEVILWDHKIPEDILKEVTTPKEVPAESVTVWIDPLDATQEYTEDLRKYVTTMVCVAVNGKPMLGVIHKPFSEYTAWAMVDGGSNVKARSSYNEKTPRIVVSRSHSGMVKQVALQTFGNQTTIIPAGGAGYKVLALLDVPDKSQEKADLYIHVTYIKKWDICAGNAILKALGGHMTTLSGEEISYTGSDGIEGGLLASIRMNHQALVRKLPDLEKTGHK
UniProt P04424, whole entry: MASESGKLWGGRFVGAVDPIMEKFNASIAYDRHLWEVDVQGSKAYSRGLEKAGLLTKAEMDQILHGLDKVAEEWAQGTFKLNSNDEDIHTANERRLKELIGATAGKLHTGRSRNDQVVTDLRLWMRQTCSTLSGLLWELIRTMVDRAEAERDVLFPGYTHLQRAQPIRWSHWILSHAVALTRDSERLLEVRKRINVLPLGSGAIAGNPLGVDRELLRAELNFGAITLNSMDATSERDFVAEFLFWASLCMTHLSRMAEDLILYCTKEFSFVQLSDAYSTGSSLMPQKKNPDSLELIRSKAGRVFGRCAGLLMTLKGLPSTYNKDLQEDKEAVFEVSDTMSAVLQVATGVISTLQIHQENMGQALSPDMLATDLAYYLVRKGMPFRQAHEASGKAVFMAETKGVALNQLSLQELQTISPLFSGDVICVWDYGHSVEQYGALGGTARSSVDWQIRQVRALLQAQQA
UniProt Q8NFT2: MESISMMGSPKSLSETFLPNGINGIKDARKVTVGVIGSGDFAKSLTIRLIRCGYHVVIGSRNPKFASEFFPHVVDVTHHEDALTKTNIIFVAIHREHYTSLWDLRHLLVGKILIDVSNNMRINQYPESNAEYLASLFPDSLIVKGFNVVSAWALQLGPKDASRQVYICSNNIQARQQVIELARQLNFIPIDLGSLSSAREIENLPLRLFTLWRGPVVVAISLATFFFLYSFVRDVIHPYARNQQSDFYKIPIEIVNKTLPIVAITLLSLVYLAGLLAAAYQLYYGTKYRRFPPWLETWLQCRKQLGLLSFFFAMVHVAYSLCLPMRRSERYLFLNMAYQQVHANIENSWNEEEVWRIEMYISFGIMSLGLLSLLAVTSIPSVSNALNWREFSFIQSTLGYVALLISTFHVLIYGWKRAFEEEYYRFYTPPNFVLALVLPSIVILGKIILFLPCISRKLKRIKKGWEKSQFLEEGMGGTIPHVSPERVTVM
UniProt O95999: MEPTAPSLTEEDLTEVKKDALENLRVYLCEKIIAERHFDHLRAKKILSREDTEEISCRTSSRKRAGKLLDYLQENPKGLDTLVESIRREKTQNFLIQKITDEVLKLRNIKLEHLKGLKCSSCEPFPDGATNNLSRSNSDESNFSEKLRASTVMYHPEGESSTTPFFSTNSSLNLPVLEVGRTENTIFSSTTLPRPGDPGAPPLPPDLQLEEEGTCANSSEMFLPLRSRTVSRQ
UniProt Q9H4I9: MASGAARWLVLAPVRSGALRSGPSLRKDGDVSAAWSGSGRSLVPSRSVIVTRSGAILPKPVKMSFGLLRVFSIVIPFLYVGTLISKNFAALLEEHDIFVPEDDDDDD
UniProt Q9Y487, whole entry: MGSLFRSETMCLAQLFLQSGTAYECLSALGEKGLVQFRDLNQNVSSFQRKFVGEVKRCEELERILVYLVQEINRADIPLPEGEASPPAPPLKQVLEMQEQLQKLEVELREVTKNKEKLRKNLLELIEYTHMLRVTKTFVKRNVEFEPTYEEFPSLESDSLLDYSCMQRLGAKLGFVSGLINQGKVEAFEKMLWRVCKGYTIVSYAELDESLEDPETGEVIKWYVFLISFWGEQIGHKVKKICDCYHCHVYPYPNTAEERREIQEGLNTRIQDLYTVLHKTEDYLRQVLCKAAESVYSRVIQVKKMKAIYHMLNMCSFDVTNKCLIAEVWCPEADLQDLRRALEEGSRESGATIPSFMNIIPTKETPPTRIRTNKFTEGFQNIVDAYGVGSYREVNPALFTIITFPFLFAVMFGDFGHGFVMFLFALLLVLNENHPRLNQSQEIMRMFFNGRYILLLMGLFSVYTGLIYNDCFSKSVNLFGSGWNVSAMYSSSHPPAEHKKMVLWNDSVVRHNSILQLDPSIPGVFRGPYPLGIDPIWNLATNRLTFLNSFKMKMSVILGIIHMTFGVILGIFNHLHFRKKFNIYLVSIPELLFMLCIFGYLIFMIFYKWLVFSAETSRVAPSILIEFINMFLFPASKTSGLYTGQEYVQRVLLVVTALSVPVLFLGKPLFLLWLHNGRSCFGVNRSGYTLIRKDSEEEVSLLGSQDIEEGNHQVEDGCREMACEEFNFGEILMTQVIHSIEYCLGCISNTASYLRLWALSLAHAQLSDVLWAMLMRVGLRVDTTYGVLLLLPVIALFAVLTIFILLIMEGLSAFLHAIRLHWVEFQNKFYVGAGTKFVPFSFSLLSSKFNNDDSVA
UniProt Q9BRR6: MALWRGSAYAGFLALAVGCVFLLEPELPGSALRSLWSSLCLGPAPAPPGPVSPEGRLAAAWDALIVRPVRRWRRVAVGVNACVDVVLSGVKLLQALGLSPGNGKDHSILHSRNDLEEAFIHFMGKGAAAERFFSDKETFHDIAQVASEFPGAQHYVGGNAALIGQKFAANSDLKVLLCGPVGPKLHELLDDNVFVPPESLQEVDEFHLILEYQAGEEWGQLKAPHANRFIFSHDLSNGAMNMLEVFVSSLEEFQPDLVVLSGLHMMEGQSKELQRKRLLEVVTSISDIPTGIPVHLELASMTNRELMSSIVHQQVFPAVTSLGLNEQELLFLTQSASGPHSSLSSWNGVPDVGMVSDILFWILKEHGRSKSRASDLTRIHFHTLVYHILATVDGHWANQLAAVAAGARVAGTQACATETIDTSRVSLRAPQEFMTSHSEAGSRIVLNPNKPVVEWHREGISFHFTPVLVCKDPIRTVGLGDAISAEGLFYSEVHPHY
UniProt P62333, whole entry: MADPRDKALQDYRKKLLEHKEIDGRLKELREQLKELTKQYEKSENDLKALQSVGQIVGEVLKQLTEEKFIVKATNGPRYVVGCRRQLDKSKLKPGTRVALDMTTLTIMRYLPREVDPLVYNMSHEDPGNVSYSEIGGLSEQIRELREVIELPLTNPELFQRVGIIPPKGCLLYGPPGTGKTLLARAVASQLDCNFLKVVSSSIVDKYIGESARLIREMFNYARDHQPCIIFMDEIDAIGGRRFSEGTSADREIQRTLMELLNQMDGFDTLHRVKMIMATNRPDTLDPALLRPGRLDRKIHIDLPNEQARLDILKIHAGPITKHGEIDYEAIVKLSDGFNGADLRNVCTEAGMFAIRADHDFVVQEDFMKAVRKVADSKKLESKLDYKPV
UniProt O14828: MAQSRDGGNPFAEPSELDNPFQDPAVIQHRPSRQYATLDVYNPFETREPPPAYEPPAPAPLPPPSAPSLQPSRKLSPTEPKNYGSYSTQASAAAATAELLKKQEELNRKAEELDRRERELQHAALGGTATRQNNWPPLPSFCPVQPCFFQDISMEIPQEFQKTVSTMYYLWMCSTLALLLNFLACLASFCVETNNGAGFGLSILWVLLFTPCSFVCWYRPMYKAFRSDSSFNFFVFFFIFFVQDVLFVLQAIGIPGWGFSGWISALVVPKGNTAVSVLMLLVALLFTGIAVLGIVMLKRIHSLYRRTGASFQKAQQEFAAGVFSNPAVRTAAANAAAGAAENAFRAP

Many values rest on one well or one pass, so single values are uncertain.

Compound in this test: [O-][N+](C(C1=C(C(O)=C2)NC(C(C=C3)=CC=C3Cl)C4C1C=CC4)=C2Cl)=O
The test can be described thus: melting temperature shift (compound 7 minus DMSO); higher = compound stabilises the protein. The following applies: 10 µM. The method, then: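 Thermal proteome profiling (TMT mass spectrometry) in intact DAOY medulloblastoma cells or DAOY lysates treated with 10 µM compound 7 or DMSO, heated at 10 temperatures from 40.5 to 73.8 °C for 3 min. Melting curves were fitted with the Bioconductor TPP package, and the melting point difference between compound and vehicle is reported per protein (single curve per condition).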

Where [1] appears, read: system: DAOY cell lysate, treatment time: 20 min, 4 °C.
Where [2] appears, read: system: intact DAOY cells, treatment time: 90 min, 37 °C.

Consider UQCR10 (UniProt Q9UDW1), for which the melting temperature shift is 1.08 °C under setting [1] and -0.849 °C under setting [2].

Turning to UniProt P05496, the melting temperature shift under setting [1] was determined as 1.64 °C.

Take EZH2 (UniProt Q15910): the melting temperature shift under setting [1] was -1.68 °C.

In the case of PHB2 (UniProt Q99623), the melting temperature shift is 2.69 °C under setting [1] and -0.807 °C under setting [2].

INF2 (UniProt Q27J81): the melting temperature shift was -0.223 °C under setting [1] and 0.378 °C under setting [2].

As to AFAP1 (UniProt Q8N556), the melting temperature shift reads like this: under setting [1], 0.99 °C; under setting [2], 0.534 °C.

In the case of PPP1R7 (UniProt Q15435), the melting temperature shift is, setting by setting: under setting [1], -0.795 °C; under setting [2], 1.21 °C.

In the case of UniProt Q14849, the melting temperature shift under setting [1] amounted to 1.84 °C.

For the target UniProt Q5T7W0, the melting temperature shift under setting [2] was -0.733 °C.

In the case of IMPAD1 (UniProt Q9NX62), the melting temperature shift turned out to be 2.82 °C under setting [1] and 0.721 °C under setting [2].

Turning to ASL (UniProt P04424), the melting temperature shift under setting [1] was -0.451 °C and the melting temperature shift under setting [2] is -0.609 °C.

Take LYAR (UniProt Q9NX58): the melting temperature shift is, setting by setting: under setting [1], 0.395 °C; under setting [2], -1.07 °C.

As for PSMD2 (UniProt Q13200), the melting temperature shift was -0.616 °C under setting [1] and -1.13 °C under setting [2].

Regarding UniProt Q8NFT2, the melting temperature shift under setting [1] is -1.36 °C.

On to ALG1 (UniProt Q9BT22), for which the melting temperature shift by setting is: under setting [1], 1.07 °C; under setting [2], -2.6 °C.

MCM6 (UniProt Q14566): the melting temperature shift by setting is: under setting [1], -0.436 °C; under setting [2], -1.37 °C.

On to BCL10 (UniProt O95999), for which the melting temperature shift is, setting by setting: under setting [1], -2.46 °C; under setting [2], 0.194 °C.

Turning to ACADVL (UniProt P49748), the melting temperature shift reads like this: under setting [1], 0.98 °C; under setting [2], -0.255 °C.

With UniProt Q9H4I9, under setting [1], the melting temperature shift was -2.67 °C.

Turning to USP28 (UniProt Q96RU2), the melting temperature shift under setting [1] was -0.782 °C and the melting temperature shift under setting [2] was -1.12 °C.

For TUBB (UniProt P07437), the melting temperature shift runs as follows: under setting [1], -0.414 °C; under setting [2], -0.516 °C.

ALKBH5 (UniProt Q6P6C2): the melting temperature shift runs as follows: under setting [1], 1.18 °C; under setting [2], 2.69 °C.

On to STAM2 (UniProt O75886), for which the melting temperature shift is 0.106 °C under setting [1] and -0.293 °C under setting [2].

For the target SF1 (UniProt Q15637), the melting temperature shift reads like this: under setting [1], -1.22 °C; under setting [2], -0.798 °C.

For ATP6V0A2 (UniProt Q9Y487), under setting [1], the melting temperature shift was -0.282 °C.

Take ADPGK (UniProt Q9BRR6): the melting temperature shift under setting [1] came out at 0.974 °C and the melting temperature shift under setting [2] stood at 0.234 °C.

Regarding PSMC6 (UniProt P62333), the melting temperature shift is, setting by setting: under setting [1], -0.111 °C; under setting [2], -0.925 °C.

In the case of SCAMP3 (UniProt O14828), the melting temperature shift is, setting by setting: under setting [1], 1.4 °C; under setting [2], 0.901 °C.

Consider LETM1 (UniProt O95202), for which the melting temperature shift under setting [1] amounted to 1.24 °C and the melting temperature shift under setting [2] was 0.0445 °C.

As to TWF2 (UniProt Q6IBS0), the melting temperature shift was -0.0299 °C under setting [1] and 0.881 °C under setting [2].

As for RBM8A (UniProt Q9Y5S9), the melting temperature shift runs as follows: under setting [1], -0.0823 °C; under setting [2], 1.42 °C.

Take UBE2A (UniProt P49459): under setting [1], the melting temperature shift is -0.0898 °C.

UniProt P17302: the melting temperature shift reads like this: under setting [1], 0.945 °C; under setting [2], 3.86 °C.

As to OTUD6B (UniProt Q8N6M0), the melting temperature shift is -0.465 °C under setting [1] and 0.318 °C under setting [2].

Consider UniProt P49448, for which, under setting [2], the melting temperature shift is -0.578 °C.

As for PRMT1 (UniProt Q99873), the melting temperature shift is, setting by setting: under setting [1], -0.276 °C; under setting [2], -0.443 °C.

On to UniProt Q92484, for which the melting temperature shift under setting [1] was -0.157 °C.
